Paper PMC10987644
Results are given in words; binding and its absence hold for the method and conditions named. Binding seen in cells or lysates may run through a third protein. These calls come from enrichment with a bait or labelling near it, and not all partners need be listed.

The chains behind the UniProt entries cited, without tags or fusion partners.
UniProt P11940: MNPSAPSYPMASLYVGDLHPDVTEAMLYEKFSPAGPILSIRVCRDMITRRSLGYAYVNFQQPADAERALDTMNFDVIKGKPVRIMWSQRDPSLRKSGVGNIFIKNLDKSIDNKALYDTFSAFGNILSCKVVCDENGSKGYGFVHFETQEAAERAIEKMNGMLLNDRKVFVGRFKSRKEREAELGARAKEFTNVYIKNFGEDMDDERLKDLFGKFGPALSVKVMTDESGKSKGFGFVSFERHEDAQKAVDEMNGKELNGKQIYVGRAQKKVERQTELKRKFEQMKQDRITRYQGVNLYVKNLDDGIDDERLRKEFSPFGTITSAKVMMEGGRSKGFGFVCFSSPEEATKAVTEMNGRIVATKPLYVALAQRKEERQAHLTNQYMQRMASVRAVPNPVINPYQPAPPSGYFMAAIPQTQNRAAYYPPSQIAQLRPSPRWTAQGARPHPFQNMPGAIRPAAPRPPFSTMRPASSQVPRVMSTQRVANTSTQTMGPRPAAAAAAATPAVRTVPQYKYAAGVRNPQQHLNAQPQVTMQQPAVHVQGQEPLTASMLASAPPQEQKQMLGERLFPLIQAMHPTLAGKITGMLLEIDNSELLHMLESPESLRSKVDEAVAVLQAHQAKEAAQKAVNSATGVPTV

T1: MEX-3 RNA binding family member A (MEX3A) (human) (UniProt A1L020)
T1 sequence: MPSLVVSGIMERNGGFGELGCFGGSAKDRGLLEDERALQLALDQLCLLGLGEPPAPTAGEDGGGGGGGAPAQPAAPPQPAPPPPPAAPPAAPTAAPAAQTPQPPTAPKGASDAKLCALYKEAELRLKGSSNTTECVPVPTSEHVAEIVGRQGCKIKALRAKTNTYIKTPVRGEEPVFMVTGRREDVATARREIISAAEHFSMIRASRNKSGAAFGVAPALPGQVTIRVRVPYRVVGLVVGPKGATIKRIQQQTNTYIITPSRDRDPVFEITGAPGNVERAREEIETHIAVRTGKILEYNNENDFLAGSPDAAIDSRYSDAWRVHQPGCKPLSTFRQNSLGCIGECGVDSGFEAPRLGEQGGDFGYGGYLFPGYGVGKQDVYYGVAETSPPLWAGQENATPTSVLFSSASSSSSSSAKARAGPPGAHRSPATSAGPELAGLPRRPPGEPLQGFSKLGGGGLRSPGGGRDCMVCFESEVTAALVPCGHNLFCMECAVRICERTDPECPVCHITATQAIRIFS


The molecules below were run against T1, MEX-3 RNA binding family member A (MEX3A) (human) (assay: affinity purification with mass spectrometry; co-immunoprecipitation of MEX3A from 293T cells, silver staining, mass spectrometry; hits with area ratio (MEX3A/CTRL) > 2 and unique peptides > 2).

Row | binding | Molecule
1 | binds | PABP1 (from UniProt P11940 1-636)
2 | binds | UPF1 (protein, UniProt Q92900 1-1129) MSVEAYGPSSQTLTFLDTEEAELLGADTQGSEFEFTDFTLPSQTQTPPGGPGGPGGGGAGGPGGAGAGAAAGQLDAQVGPEGILQNGAVDDSVAKTSQLLAELNFEEDEEDTYYTKDLPIHACSYCGIHDPACVVYCNTSKKWFCNGRGNTSGSHIVNHLVRAKCKEVTLHKDGPLGETVLECYNCGCRNVFLLGFIPAKADSVVVLLCRQPCASQSSLKDINWDSSQWQPLIQDRCFLSWLVKIPSEQEQLRARQITAQQINKLEELWKENPSATLEDLEKPGVDEEPQHVLLRYEDAYQYQNIFGPLVKLEADYDKKLKESQTQDNITVRWDLGLNKKRIAYFTLPKTDSGNEDLVIIWLRDMRLMQGDEICLRYKGDLAPLWKGIGHVIKVPDNYGDEIAIELRSSVGAPVEVTHNFQVDFVWKSTSFDRMQSALKTFAVDETSVSGYIYHKLLGHEVEDVIIKCQLPKRFTAQGLPDLNHSQVYAVKTVLQRPLSLIQGPPGTGKTVTSATIVYHLARQGNGPVLVCAPSNIAVDQLTEKIHQTGLKVVRLCAKSREAIDSPVSFLALHNQIRNMDSMPELQKLQQLKDETGELSSADEKRYRALKRTAERELLMNADVICCTCVGAGDPRLAKMQFRSILIDESTQATEPECMVPVVLGAKQLILVGDHCQLGPVVMCKKAAKAGLSQSLFERLVVLGIRPIRLQVQYRMHPALSAFPSNIFYEGSLQNGVTAADRVKKGFDFQWPQPDKPMFFYVTQGQEEIASSGTSYLNRTEAANVEKITTKLLKAGAKPDQIGIITPYEGQRSYLVQYMQFSGSLHTKLYQEVEIASVDAFQGREKDFIILSCVRANEHQGIGFLNDPRRLNVALTRARYGVIIVGNPKALSKQPLWNHLLNYYKEQKVLVEGPLNNLRESLMQFSKPRKLVNTINPGARFMTTAMYDAREAIIPGSVYDRSSQGRPSSMYFQTHDQIGMISAGPSHVAAMNIPIPFNLVMPPMPPPGYFGQANGPAAGRGTPKGKTGRGGRQKNRFGLPGPSQTNLPNSQASQDVASQPFSQGALTQGYISMSQPSQMSQPGLSQPELSQDSYLGDEFKSQIDVALSQDSTYQGERAYQHGGVTGLSQY
3 | binds | MOV10 (protein, UniProt Q9HCE1 1-1003) MPSKFSCRQLREAGQCFESFLVVRGLDMETDRERLRTIYNRDFKISFGTPAPGFSSMLYGMKIANLAYVTKTRVRFFRLDRWADVRFPEKRRMKLGSDISKHHKSLLAKIFYDRAEYLHGKHGVDVEVQGPHEARDGQLLIRLDLNRKEVLTLRLRNGGTQSVTLTHLFPLCRTPQFAFYNEDQELPCPLGPGECYELHVHCKTSFVGYFPATVLWELLGPGESGSEGAGTFYIARFLAAVAHSPLAAQLKPMTPFKRTRITGNPVVTNRIEEGERPDRAKGYDLELSMALGTYYPPPRLRQLLPMLLQGTSIFTAPKEIAEIKAQLETALKWRNYEVKLRLLLHLEELQMEHDIRHYDLESVPMTWDPVDQNPRLLTLEVPGVTESRPSVLRGDHLFALLSSETHQEDPITYKGFVHKVELDRVKLSFSMSLLSRFVDGLTFKVNFTFNRQPLRVQHRALELTGRWLLWPMLFPVAPRDVPLLPSDVKLKLYDRSLESNPEQLQAMRHIVTGTTRPAPYIIFGPPGTGKTVTLVEAIKQVVKHLPKAHILACAPSNSGADLLCQRLRVHLPSSIYRLLAPSRDIRMVPEDIKPCCNWDAKKGEYVFPAKKKLQEYRVLITTLITAGRLVSAQFPIDHFTHIFIDEAGHCMEPESLVAIAGLMEVKETGDPGGQLVLAGDPRQLGPVLRSPLTQKHGLGYSLLERLLTYNSLYKKGPDGYDPQFITKLLRNYRSHPTILDIPNQLYYEGELQACADVVDRERFCRWAGLPRQGFPIIFHGVMGKDEREGNSPSFFNPEEAATVTSYLKLLLAPSSKKGKARLSPRSVGVISPYRKQVEKIRYCITKLDRELRGLDDIKDLKVGSVEEFQGQERSVILISTVRSSQSFVQLDLDFNLGFLKNPKRFNVAVTRAKALLIIVGNPLLLGHDPDWKVFLEFCKENGGYTGCPFPAKLDLQQGQNLLQGLSKLSPSTSGPHSHDYLPQEREGEGGLSLQVEPEWRNEL
